Reference: PubChem BioAssay AID1259308 (NCATS, 2017)

Screen: 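Candidate targets for better recombinant protein yield in mammalian cells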 (primary screen)
System: human HEK293 embryonic kidney cells stably expressing firefly luciferase (HEK-CMV-Luc2-Hygro)
Knock-down reagent: single siRNA against human genes, 0.8 pmol siRNA per well
Time to read-out: 72 h
Read-out: 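Reporter luminescence and viable-cell signal on separate replicate plates, given as percent of non-targeting control and median/MAD z-scores, plus per-cell luciferase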
Direction: total luciferase, z-score and total luciferase, % of control: higher = more reporter protein produced; luciferase per cell, z-score: higher = more reporter output per viable cell
Rule for the call: 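An siRNA counts as active if its total luciferase robust z-score exceeds 3; genes with two or more such siRNAs out of three were retested with fresh siRNAs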
Meaning of the calls: active = raised luciferase; inactive = no rise
Shown is a random part of about 59,000 deposited reagents. About 1,510 of all reagents (2.6%) count as active. 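Calls use total luciferase alone and ignore viability, so some active siRNAs may act by altering cell number.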 Unmarked entries are inactive. Further read-outs or replicates are left out here.

| target | PubChem SID | total luciferase, z-score | total luciferase, % of control | luciferase per cell, z-score |
| --- | --- | --- | --- | --- |
| FER | SID160764801 | -1.38 | 54.4 | -0.309 |
| FER | SID160764812 | -1.78 | 46.4 | -1.99 |
| FER | SID160764822 | -0.318 | 75.6 | -0.701 |
| PHKB | SID160714258 | 0.0977 | 83.8 | 0.33 |
| PHKB | SID160714259 | -2.06 | 40.8 | -2.75 |
| PHKB | SID160714260 | -1.32 | 55.7 | -1.88 |
| NOPCHAP1 | SID160732380 | -0.874 | 64.5 | -0.941 |
| NOPCHAP1 | SID160755859 | -0.905 | 63.9 | -0.448 |
| NOPCHAP1 | SID160755860 | -1.27 | 56.5 | -0.743 |
| ZNF804A | SID160754093 | 0.27 | 87.3 | -0.109 |
| ZNF804A | SID160754094 | 0.32 | 88.2 | 0.423 |
| ZNF804A | SID160754095 | -0.266 | 76.6 | -0.893 |
| SARAF | SID160741195 | 0.12 | 84.3 | -0.179 |
| SARAF | SID160741197 | 0.0842 | 83.6 | 0.329 |
| SARAF | SID160741198 | 1.4 | 110 | 1.59 |
| SHPK | SID160736816 | 0.781 | 97.4 | 2.32 |
| SHPK | SID160736817 | -0.111 | 79.7 | -0.27 |
| SHPK | SID160736818 | 0.35 | 88.8 | 0.00867 |
| SLFN5 | SID160759913 | -0.282 | 76.3 | -0.528 |
| SLFN5 | SID160759914 | 0.315 | 88.2 | 0.328 |
| SLFN5 | SID160759916 | 1.01 | 102 | 0.753 |
| HPCAL4 | SID160731369 | -0.304 | 75.8 | -0.308 |
| HPCAL4 | SID160740817 | 0.123 | 84.3 | 1.75 |
| HPCAL4 | SID160740818 | -0.117 | 79.6 | 0.954 |
| SCD5 | SID160749867 | -1.17 | 58.7 | -1.08 |
| SCD5 | SID160749868 | -0.989 | 62.2 | -0.812 |
| SCD5 | SID160749869 | -0.96 | 62.8 | -1 |
| B4GALNT4 | SID160764086 | -2.66 | 28.9 | -2.66 |
| B4GALNT4 | SID160764087 | 2.82 | 138 | 2.1 |
| B4GALNT4 | SID160764088 | 0.252 | 86.9 | 0.263 |
| CCDC169 | SID160771935 | 0.988 | 102 | 0.786 |
| CCDC169 | SID160771936 | -1.03 | 61.5 | -0.605 |
| CCDC169 | SID160771937 | -0.261 | 76.7 | -0.683 |
| MEX3D | SID160766821 | -3.56 | 11 | -7.76 |
| MEX3D | SID160766822 | -0.0377 | 81.1 | 0.284 |
| MEX3D | SID160766823 | -0.117 | 79.6 | -0.0136 |
| DGCR8 | SID160741776 | 0.192 | 85.7 | -0.337 |
| DGCR8 | SID160741777 | 0.165 | 85.2 | 0.421 |
| DGCR8 | SID160741778 | -0.756 | 66.9 | -0.177 |
| TMEM128 | SID160735136 | -0.0153 | 81.6 | -0.553 |
| TMEM128 | SID160753118 | -0.582 | 70.3 | -0.686 |
| TMEM128 | SID160753119 | -0.121 | 79.5 | 0.936 |
| FAM161B | SID160758242 | 0.287 | 87.6 | 0.464 |
| FAM161B | SID160758243 | -0.103 | 79.8 | -0.376 |
| FAM161B | SID160758244 | -0.644 | 69.1 | -1.3 |
| CYP4F3 | SID160776759 | 0.628 | 94.4 | 0.981 |
| CYP4F3 | SID160776760 | -1.1 | 59.9 | -0.699 |
| CYP4F3 | SID160776761 | 2.24 | 126 | 1.94 |
| SPANXN1 | SID160733466 | 0.465 | 91.1 | -0.0507 |
| SPANXN1 | SID160768264 | 1.25 | 107 | 1.03 |
| SPANXN1 | SID160768265 | -0.773 | 66.5 | -0.368 |
| LOC401218 | SID160726243 | -0.698 | 68 | 0.322 |
| LOC401218 | SID160770657 | -0.85 | 65 | -0.238 |
| LOC401218 | SID160770659 | -0.572 | 70.5 | 0.31 |
| NOL4L-DT | SID160758884 | 1.47 | 111 | 1.5 |
| NOL4L-DT | SID160758885 | -2.22 | 37.7 | -0.454 |
| NOL4L-DT | SID160758886 | 0.989 | 102 | 1.17 |

Limited to “total luciferase, z-score” (7 entries from above):
MEX3D [SID160766823]: -0.117
DGCR8 [SID160741776]: 0.192
DGCR8 [SID160741777]: 0.165
DGCR8 [SID160741778]: -0.756
TMEM128 [SID160735136]: -0.0153
TMEM128 [SID160753118]: -0.582
TMEM128 [SID160753119]: -0.121
